Assay results as given in article doi:10.1101/2019.12.13.876029.
Results are given in words; binding and its absence hold for the method and conditions named. Binding seen in cells or lysates may run through a third protein. Some results given as binding are weak or reduced against the parent protein; the word gives no strength. Sequences can lack the tags named with a protein.

Amino acid sequences for entries named in this document (tags omitted).
UniProt P25694: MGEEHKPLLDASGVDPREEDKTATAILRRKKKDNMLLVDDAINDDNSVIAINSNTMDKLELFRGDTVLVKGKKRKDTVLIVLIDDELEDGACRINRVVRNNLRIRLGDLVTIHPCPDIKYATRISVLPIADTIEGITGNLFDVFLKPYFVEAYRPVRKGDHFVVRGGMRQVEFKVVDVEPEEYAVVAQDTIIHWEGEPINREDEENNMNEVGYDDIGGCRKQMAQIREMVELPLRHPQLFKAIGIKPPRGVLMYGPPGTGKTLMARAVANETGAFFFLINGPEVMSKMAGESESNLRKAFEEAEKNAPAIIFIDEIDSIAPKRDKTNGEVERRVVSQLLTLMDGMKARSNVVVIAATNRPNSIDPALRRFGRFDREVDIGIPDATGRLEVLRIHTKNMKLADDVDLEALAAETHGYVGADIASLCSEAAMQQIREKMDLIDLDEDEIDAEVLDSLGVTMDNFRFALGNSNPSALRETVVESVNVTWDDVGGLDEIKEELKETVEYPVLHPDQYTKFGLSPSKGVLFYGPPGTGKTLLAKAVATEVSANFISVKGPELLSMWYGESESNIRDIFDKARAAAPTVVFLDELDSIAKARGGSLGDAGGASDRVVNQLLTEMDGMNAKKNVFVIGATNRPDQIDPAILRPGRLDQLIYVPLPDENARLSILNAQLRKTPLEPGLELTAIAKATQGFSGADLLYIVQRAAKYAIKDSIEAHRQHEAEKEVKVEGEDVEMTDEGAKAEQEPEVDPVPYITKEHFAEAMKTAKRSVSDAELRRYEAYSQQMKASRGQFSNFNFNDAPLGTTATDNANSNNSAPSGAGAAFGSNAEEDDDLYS
UniProt P52286: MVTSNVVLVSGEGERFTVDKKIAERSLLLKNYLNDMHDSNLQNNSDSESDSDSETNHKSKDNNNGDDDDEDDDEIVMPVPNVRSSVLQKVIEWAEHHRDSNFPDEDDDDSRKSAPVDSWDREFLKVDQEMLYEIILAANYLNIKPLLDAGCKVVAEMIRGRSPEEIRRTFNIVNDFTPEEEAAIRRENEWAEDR

T1: 12xMyc-Met30 (F-box protein Met30 of SCF^Met30) (budding yeast (endogenous in the yeast strains)) (UniProt P39014)
T1 sequence: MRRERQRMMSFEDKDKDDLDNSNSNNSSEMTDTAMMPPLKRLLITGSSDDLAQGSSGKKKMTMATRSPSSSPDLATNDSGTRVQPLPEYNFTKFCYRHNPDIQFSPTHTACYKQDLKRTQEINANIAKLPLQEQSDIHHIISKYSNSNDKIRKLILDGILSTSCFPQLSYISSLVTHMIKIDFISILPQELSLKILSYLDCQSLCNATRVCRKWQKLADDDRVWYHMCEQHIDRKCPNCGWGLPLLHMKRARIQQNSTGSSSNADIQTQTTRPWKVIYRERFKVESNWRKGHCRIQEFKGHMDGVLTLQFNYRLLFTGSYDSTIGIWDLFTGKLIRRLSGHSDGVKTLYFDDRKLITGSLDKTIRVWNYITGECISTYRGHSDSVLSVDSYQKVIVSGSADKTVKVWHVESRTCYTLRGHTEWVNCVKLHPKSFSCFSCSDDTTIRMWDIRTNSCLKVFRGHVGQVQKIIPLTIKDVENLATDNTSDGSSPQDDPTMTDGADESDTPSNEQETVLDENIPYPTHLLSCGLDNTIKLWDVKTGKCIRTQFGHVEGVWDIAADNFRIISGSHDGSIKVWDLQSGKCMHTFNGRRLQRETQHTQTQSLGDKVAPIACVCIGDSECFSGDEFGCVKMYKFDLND


Target: T1, 12xMyc-Met30 (F-box protein Met30 of SCF^Met30) (budding yeast (endogenous in the yeast strains))
Assay: co-IP

Molecule | binding
Cdc48-RGS6H (AAA-ATPase Cdc48) (from UniProt P25694 1-835) (enzyme) | binds
Shp1 ΔCIM2-3xHA (protein, UniProt P34223 1-423) MAEIPDETIQQFMALTNVSHNIAVQYLSEFGDLNEALNSYYASQTDDQKDRREEAHWNRQQEKALKQEAFSTNSSNKAINTEHVGGLCPKPGSSQGSNEYLKRKGSTSPEPTKGSSRSGSGNNSRFMSFSDMVRGQADDDDEDQPRNTFAGGETSGLEVTDPSDPNSLLKDLLEKARRGGQMGAENGFRDDEDHEMGANRFTGRGFRLGSTIDAADEVVEDNTSQSQRRPEKVTREITFWKEGFQVADGPLYRYDDPANSFYLSELNQGRAPLKLLDVQFGQEVEVNVYKKLDESYKAPTRKLGGFSGQGQRLGSPIPGESSPAEVPKNETPAAQEQPMPDNEPKQGDTSIQIRYANGKREVLHCNSTDTVKFLYEHVTSNANTDPSRNFTLNYAGAGKPISNDETTLKDADLLNSVVVQRWA | binds
Npl4-3xHA (protein, UniProt P33755 1-580) MLIRFRSKNGTHRVSCQENDLFGTVIEKLVGNLDPNADVDTFTVCEKPGQGIHAVSELADRTVMDLGLKHGDMLILNYSDKPANEKDGVNVEIGSVGIDSKGIRQHRYGPLRIKELAVDEELEKEDGLIPRQKSKLCKHGDRGMCEYCSPLPPWDKEYHEKNKIKHISFHSYLKKLNENANKKENGSSYISPLSEPDFRINKRCHNGHEPWPRGICSKCQPSAITLQQQEFRMVDHVEFQKSEIINEFIQAWRYTGMQRFGYMYGSYSKYDNTPLGIKAVVEAIYEPPQHDEQDGLTMDVEQVKNEMLQIDRQAQEMGLSRIGLIFTDLSDAGAGDGSVFCKRHKDSFFLSSLEVIMAARHQTRHPNVSKYSEQGFFSSKFVTCVISGNLEGEIDISSYQVSTEAEALVTADMISGSTFPSMAYINDTTDERYVPEIFYMKSNEYGITVKENAKPAFPVDYLLVTLTHGFPNTDTETNSKFVSSTGFPWSNRQAMGQSQDYQELKKYLFNVASSGDFNLLHEKISNFHLLLYINSLQILSPDEWKLLIESAVKNEWEESLLKLVSSAGWQTLVMILQESG | binds

Second part, the molecule after the results:

binding | Molecule
binds | Skp1 (from UniProt P52286 1-194)
binds | Shp1 ΔUBXCt-3xHA (domain or fragment, UniProt P34223 1-400) MAEIPDETIQQFMALTNVSHNIAVQYLSEFGDLNEALNSYYASQTDDQKDRREEAHWNRQQEKALKQEAFSTNSSNKAINTEHVGGLCPKPGSSQGSNEYLKRKGSTSPEPTKGSSRSGSGNNSRFMSFSDMVRGQADDDDEDQPRNTFAGGETSGLEVTDPSDPNSLLKDLLEKARRGGQMGAENGFRDDEDHEMGANRFTGRGFRLGSTIDAADEVVEDNTSQSQRRPEKVTREITFWKEGFQVADGPLYRYDDPANSFYLSELNQGRAPLKLLDVQFGQEVEVNVYKKLDESYKAPTRKLGGFSGQGQRLGSPIPGESSPAEVPKNETPAAQEQPMPDNEPKQGDTSIQIRYANGKREVLHCNSTDTVKFLYEHVTSNANTDPSRNFTLNYAFPIKP
binds | Shp1-3xHA (wild type) (protein, UniProt P34223 1-423) MAEIPDETIQQFMALTNVSHNIAVQYLSEFGDLNEALNSYYASQTDDQKDRREEAHWNRQQEKALKQEAFSTNSSNKAINTEHVGGLCPKPGSSQGSNEYLKRKGSTSPEPTKGSSRSGSGNNSRFMSFSDMVRGQADDDDEDQPRNTFAGGETSGLEVTDPSDPNSLLKDLLEKARRGGQMGAENGFRDDEDHEMGANRFTGRGFRLGSTIDAADEVVEDNTSQSQRRPEKVTREITFWKEGFQVADGPLYRYDDPANSFYLSELNQGRAPLKLLDVQFGQEVEVNVYKKLDESYKAPTRKLGGFSGQGQRLGSPIPGESSPAEVPKNETPAAQEQPMPDNEPKQGDTSIQIRYANGKREVLHCNSTDTVKFLYEHVTSNANTDPSRNFTLNYAFPIKPISNDETTLKDADLLNSVVVQRWA
binds | Shp1-3xHA-AID (protein, UniProt P34223 1-423) MAEIPDETIQQFMALTNVSHNIAVQYLSEFGDLNEALNSYYASQTDDQKDRREEAHWNRQQEKALKQEAFSTNSSNKAINTEHVGGLCPKPGSSQGSNEYLKRKGSTSPEPTKGSSRSGSGNNSRFMSFSDMVRGQADDDDEDQPRNTFAGGETSGLEVTDPSDPNSLLKDLLEKARRGGQMGAENGFRDDEDHEMGANRFTGRGFRLGSTIDAADEVVEDNTSQSQRRPEKVTREITFWKEGFQVADGPLYRYDDPANSFYLSELNQGRAPLKLLDVQFGQEVEVNVYKKLDESYKAPTRKLGGFSGQGQRLGSPIPGESSPAEVPKNETPAAQEQPMPDNEPKQGDTSIQIRYANGKREVLHCNSTDTVKFLYEHVTSNANTDPSRNFTLNYAFPIKPISNDETTLKDADLLNSVVVQRWA
